The values that follow come from patent publication US20220348670A1 (BIODURO BEIJING, published 2022).

Results are given in words; binding and its absence hold for the method and conditions named. Some results given as binding are weak or reduced against the parent protein; the word gives no strength. For some assays here: Sequences can lack the tags named with a protein.

T1: OX40-mFc protein (UniProt P43489 29-214)
T1 sequence (looked up): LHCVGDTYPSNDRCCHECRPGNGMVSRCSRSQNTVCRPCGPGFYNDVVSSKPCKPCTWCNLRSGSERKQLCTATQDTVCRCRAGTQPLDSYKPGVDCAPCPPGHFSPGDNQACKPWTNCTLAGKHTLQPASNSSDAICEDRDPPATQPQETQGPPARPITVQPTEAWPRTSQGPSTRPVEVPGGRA

B1: OX40 BC3-4 (phage-displayed VHH clone) (VHH)
VHH: EVQLVESGGGLVQPGGSLRLSCAASGFIFSAYFMGWFRQAPGKGRELVAAINSNDDITYYPDSVEGRFTISRDNAKRMVYLQMNSLRAEDTAVYYCAAWLGAENYGYWGQGTQVTVSS
notes: Tested as phage in monoclonal culture supernatant (M13 display), not as purified protein; the phage coat fusion is not described
B2: OX40 BC3-6 (phage-displayed VHH clone) (VHH)
VHH: EVQLVESGGGLVQPGGSLRLSCAASGSILDSNLMGWFRQAPGKGRELVASINSYDDNTYYPDSVEGRFTISRDNAKRMVYLQMNSLRAEDTAVYYCAAQVFVGWPYTDQMHDYWGQGTQVTVSS
notes: as for B1
B3: OX40 BC3-1 (phage-displayed VHH clone) (VHH)
VHH: EVQLVESGGGLVQPGGSLRLSCAASGSIFSVYVMGWFRQAPGKGRELVAAITPFDDNTYYPDSVEGRFTISRDNAKRMVYLQMNSLRAEDTAVYYCAADWEWPEYNYWGQGTQVTVSS
notes: as for B1
B4: OX40 BC3-7 (phage-displayed VHH clone) (VHH)
VHH: EVQLVESGGGLVQPGGSLRLSCAASGSIYDFDVMGWFRQAPGKGRELVAAINSFGDITYYPDSVEGRFTISRDNAKRMVYLQMNSLRAEDTAVYYCAADWHVLIQQVLGYWGQGTQVTVSS
notes: as for B1
B5: anti-human OX40 antibody BC3-4 (OX40 VHH-Fc) (Fc fusion)
chain: B1 VHH
notes: VHH fused through a linker to human IgG Fc, expressed in ExpiCHO, purified on Protein A; also called OX40 BC3-4; OX40 VHH-Fc antibody; not shown: linker encoded by the CMV-12GS-FC vector; human IgG FC fragment (hFC)
B6: anti-human OX40 antibody BC3-6 (OX40 VHH-Fc) (Fc fusion)
chain: B2 VHH
notes: VHH fused through a linker to human IgG Fc, expressed in ExpiCHO, purified on Protein A; also called OX40 BC3-6; OX40 VHH-Fc antibody; not shown: linker encoded by the CMV-12GS-FC vector; human IgG FC fragment (hFC)
B7: anti-human OX40 antibody BC3-1 (OX40 VHH-Fc) (Fc fusion)
chain: B3 VHH
notes: VHH fused through a linker to human IgG Fc, expressed in ExpiCHO, purified on Protein A; also called OX40 BC3-1; OX40 VHH-Fc antibody; not shown: linker encoded by the CMV-12GS-FC vector; human IgG FC fragment (hFC)
B8: anti-human OX40 antibody BC3-7 (OX40 VHH-Fc) (Fc fusion)
chain: B4 VHH
notes: VHH fused through a linker to human IgG Fc, expressed in ExpiCHO, purified on Protein A; also called OX40 BC3-7; OX40 VHH-Fc antibody; not shown: linker encoded by the CMV-12GS-FC vector; human IgG FC fragment (hFC)

The target of one assay is T1, OX40-mFc protein. Description: phage ELISA on coated OX40-mFc. On the technique in general: In an ELISA, binding on a coated surface is turned into a signal by an enzyme label.
Regarding B1, the binding result is “binds”.
Same read-out and setting: for B2 the value was “binds”.
On the same count and under the same terms, for B3 the value was “binds”; for B4, “binds”.

The target of a further assay is OX40 (CRD2-3-4) (human), truncated human OX40 that lacks the CRD1 domain (human) (UniProt P43489). Description: FACS on transiently transfected CHO-S cells.
B5: the binding entry was “binds”.
Consider B6, for which the binding entry was “binds”.
In the case of B7, the binding result is “binds”.
On the same count and under the same terms, for B8 the value was “binds”.
